Measurements reported in PubChem BioAssay AID1224830 (NIAID, 2016)
This is one part, drawn at random, of about 18,000 reagents tested. Over the whole deposit, about 2,900 (16%) were called active. 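Calls are made per well; low scores hint the gene aids the LPS response, high scores that it dampens it.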 Entries without a mark were called inactive. Repeated entries: four replicate wells of each siRNA pool.

Screen: 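Regulators of TLR4 signalling towards TNF-alpha in macrophage-like cells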 (primary screen)
Cells: human THP-1 monocytic leukaemia cells, TNF dual-luciferase reporter clone, PMA-differentiated to macrophage-like cells
Knock-down reagent: siRNA pool against human genes, 50 nM
Time to read-out: LPS for 4 h, given about 3 days after siRNA transfection
Challenge: bacterial LPS (TLR4 ligand), 10 ng/ml
Measured: 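Ratio of firefly to renilla light, scaled to the plate median and expressed as a robust z-score per replicate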
Reading the numbers: TNF reporter robust z-score: higher = stronger TNF reporter response to LPS
Hit rule: 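Each well counts as active if its z-score is over 2.8 or under -1.5; controls are left without a call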

{"gene knocked down": "RGP1", "TNF reporter robust z-score": 0.23}
{"gene knocked down": "RGP1", "TNF reporter robust z-score": 1.18}
{"gene knocked down": "RGP1", "TNF reporter robust z-score": 0.63}
{"gene knocked down": "RGP1", "TNF reporter robust z-score": 0.62}
{"gene knocked down": "LRIT2", "TNF reporter robust z-score": 0.2}
{"gene knocked down": "LRIT2", "TNF reporter robust z-score": 0.7}
{"gene knocked down": "LRIT2", "TNF reporter robust z-score": -0.16}
{"gene knocked down": "LRIT2", "TNF reporter robust z-score": 1.96}
{"gene knocked down": "PSAT1", "TNF reporter robust z-score": -0.95}
{"gene knocked down": "PSAT1", "TNF reporter robust z-score": -0.18}
{"gene knocked down": "PSAT1", "TNF reporter robust z-score": -0.22}
{"gene knocked down": "PSAT1", "TNF reporter robust z-score": 0.89}
{"gene knocked down": "SRRM1", "TNF reporter robust z-score": -0.13}
{"gene knocked down": "SRRM1", "TNF reporter robust z-score": -1.05}
{"gene knocked down": "SRRM1", "TNF reporter robust z-score": -1.14}
{"gene knocked down": "SRRM1", "TNF reporter robust z-score": -0.92}
{"gene knocked down": "SAP130", "TNF reporter robust z-score": 1.16}
{"gene knocked down": "SAP130", "TNF reporter robust z-score": -0.17}
{"gene knocked down": "SAP130", "TNF reporter robust z-score": -0.24}
{"gene knocked down": "SAP130", "TNF reporter robust z-score": -0.7}
{"gene knocked down": "PIGO", "TNF reporter robust z-score": -0.3}
{"gene knocked down": "PIGO", "TNF reporter robust z-score": 0.11}
{"gene knocked down": "PIGO", "TNF reporter robust z-score": 1.13}
{"gene knocked down": "PIGO", "TNF reporter robust z-score": 1.41}
{"gene knocked down": "NAGPA", "TNF reporter robust z-score": 1.42}
{"gene knocked down": "NAGPA", "TNF reporter robust z-score": 0.43}
{"gene knocked down": "NAGPA", "TNF reporter robust z-score": 1.08}
{"gene knocked down": "NAGPA", "TNF reporter robust z-score": 1.82}
{"gene knocked down": "VN1R2", "TNF reporter robust z-score": -0.66}
{"gene knocked down": "VN1R2", "TNF reporter robust z-score": -0.28}
{"gene knocked down": "VN1R2", "TNF reporter robust z-score": -0.72}
{"gene knocked down": "VN1R2", "TNF reporter robust z-score": 0.78}
